We go through one molecule from paper PMC9150345.

The chains behind the UniProt entries cited, without tags or fusion partners.
UniProt P20226: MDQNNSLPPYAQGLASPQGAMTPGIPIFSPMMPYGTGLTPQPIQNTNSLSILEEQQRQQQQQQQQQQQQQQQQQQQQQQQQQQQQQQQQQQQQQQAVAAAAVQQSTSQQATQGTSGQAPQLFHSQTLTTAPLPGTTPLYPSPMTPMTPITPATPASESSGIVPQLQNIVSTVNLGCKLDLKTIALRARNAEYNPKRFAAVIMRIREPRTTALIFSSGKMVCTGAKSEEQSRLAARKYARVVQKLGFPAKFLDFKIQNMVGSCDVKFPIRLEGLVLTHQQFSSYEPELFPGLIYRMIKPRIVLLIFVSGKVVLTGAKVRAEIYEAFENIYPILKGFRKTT

These are yes or no findings as the source states them, for the method shown. In cells and extracts the contact can be indirect. Some entries that bind do so weakly or less than the wild type. Sequences can lack the tags named with a protein.

The target in the assay is TATA-binding protein (hTBP), fused to the N-terminal fragment of Venus (human) (UniProt P20226). As to the kind of experiment: split reporter; BiFC assays of TBP with TFIIEβ (unpublished results).

B1: TFIIEβ, BiFC fusion (unpublished results) (protein, UniProt O96881 1-292)
chain: MDPALLREREAFKKRAMATPTVEKKSKPDRPAPPPPSDDSRRKMRPPNAPRLDATTYKTMSGSSQYRFGVLAKIVKFMRTRHQDGDDHPLTIDEILDETNQLDIGQSVKNWLASEALHNNPKVEASPCGTKFSFKPVYKIKDGKTLMRLLKQHDLKGLGGILLDDVQESLPHCEKVLKNRSAEILFVVRPIDKKKILFYNDRTANFSVDDEFQKLWRSATVDAMDDAKIDEYLEKQGIRSMQDHGLKKAIPKRKKAANKKRQFKKPRDNEHLADVLEVYEDNTLTLKGVNPT
B1: the binding result is reported as “binds weakly”.
